PubChem BioAssay AID1508597, Cure First – 2020
The deposit covers about 2,100 reagents; below is a part drawn at random. 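Calls flag viability under 80% in either arm, not effects specific to rucaparib; the reference for percent is not stated.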 No sequences are given here. Not given: the 100% reference.

Aim: 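Genes whose silencing sensitises or protects ovarian cancer cells against rucaparib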 (primary screen)
Cells: human ovarian carcinoma lines grown from tumours: OCI-P5x (papillary serous) and OCI-C5x (clear cell)
Reagent: siRNA pool against human genes, 1.25 pmol siRNA per well
Timing: 72 h or 96 h, depending on the cell culture
Treatment: rucaparib 20 µM (about IC30) or vehicle, present until read-out
Measured: 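ATP luminescence measured at 72 or 96 h according to the culture, then normalised and expressed as percent viability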
Direction: viability, normalised: higher = more viable cells remaining
Hit rule: 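a well counts as a hit if its normalised viability is under 80 percent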
Calls: active = viability under 80%; inactive = viability 80% or more

gene symbol	rucaparib or vehicle	cell line	technical replicate	viability, normalised (%)	outcome
APOE	Rucaparib	OCI-C5x (clear cell)	1	52.4	active
APOE	Rucaparib	OCI-C5x (clear cell)	2	49.8	active
APOE	Rucaparib	OCI-C5x (clear cell)	3	35.6	active
APOE	Rucaparib	OCI-P5x (serous)	1	72.5	active
APOE	Rucaparib	OCI-P5x (serous)	2	91.2	inactive
APOE	Rucaparib	OCI-P5x (serous)	3	76.2	active
APOE	Vehicle	OCI-C5x (clear cell)	1	40.2	active
APOE	Vehicle	OCI-C5x (clear cell)	2	36.9	active
APOE	Vehicle	OCI-C5x (clear cell)	3	46.3	active
APOE	Vehicle	OCI-P5x (serous)	1	67.4	active
APOE	Vehicle	OCI-P5x (serous)	2	67.2	active
APOE	Vehicle	OCI-P5x (serous)	3	72.5	active
PDE9A	Rucaparib	OCI-C5x (clear cell)	1	79.8	active
PDE9A	Rucaparib	OCI-C5x (clear cell)	2	49.4	active
PDE9A	Rucaparib	OCI-C5x (clear cell)	3	57.8	active
PDE9A	Rucaparib	OCI-P5x (serous)	1	69.6	active
PDE9A	Rucaparib	OCI-P5x (serous)	2	38	active
PDE9A	Rucaparib	OCI-P5x (serous)	3	60.3	active
PDE9A	Vehicle	OCI-C5x (clear cell)	1	53.1	active
PDE9A	Vehicle	OCI-C5x (clear cell)	2	66.6	active
PDE9A	Vehicle	OCI-C5x (clear cell)	3	48.5	active
PDE9A	Vehicle	OCI-P5x (serous)	1	70.3	active
PDE9A	Vehicle	OCI-P5x (serous)	2	53.4	active
PDE9A	Vehicle	OCI-P5x (serous)	3	76.2	active

Individual results from the list:
Under “outcome”, PDE9A, rucaparib or vehicle Vehicle, cell line OCI-C5x (clear cell), technical replicate 3 reads active
APOE, rucaparib or vehicle Vehicle, cell line OCI-P5x (serous), technical replicate 2, outcome = active
APOE, rucaparib or vehicle Vehicle, cell line OCI-C5x (clear cell), technical replicate 3, viability, normalised (%): 46.3
Entry of PDE9A, rucaparib or vehicle Rucaparib, cell line OCI-P5x (serous), technical replicate 1 under “outcome”: active
PDE9A, rucaparib or vehicle Rucaparib, cell line OCI-P5x (serous), technical replicate 2, outcome: active
APOE, rucaparib or vehicle Rucaparib, cell line OCI-P5x (serous), technical replicate 2, viability, normalised (%) → 91.2

The listing continues.
gene symbol	rucaparib or vehicle	cell line	technical replicate	viability, normalised (%)	outcome
PARP12	Rucaparib	OCI-C5x (clear cell)	1	38	active
PARP12	Rucaparib	OCI-C5x (clear cell)	2	31.6	active
PARP12	Rucaparib	OCI-C5x (clear cell)	3	40.7	active
PARP12	Rucaparib	OCI-P5x (serous)	1	41.4	active
PARP12	Rucaparib	OCI-P5x (serous)	2	52.6	active
PARP12	Rucaparib	OCI-P5x (serous)	3	49.9	active
PARP12	Vehicle	OCI-C5x (clear cell)	1	33.9	active
PARP12	Vehicle	OCI-C5x (clear cell)	2	29	active
PARP12	Vehicle	OCI-C5x (clear cell)	3	31.7	active
PARP12	Vehicle	OCI-P5x (serous)	1	50.7	active
PARP12	Vehicle	OCI-P5x (serous)	2	74.6	active
PARP12	Vehicle	OCI-P5x (serous)	3	80.2	inactive
PRDM14	Rucaparib	OCI-C5x (clear cell)	1	43.3	active
PRDM14	Rucaparib	OCI-C5x (clear cell)	2	46.9	active
PRDM14	Rucaparib	OCI-C5x (clear cell)	3	39.8	active
PRDM14	Rucaparib	OCI-P5x (serous)	1	37.5	active
PRDM14	Rucaparib	OCI-P5x (serous)	2	37.9	active
PRDM14	Rucaparib	OCI-P5x (serous)	3	48.7	active
PRDM14	Vehicle	OCI-C5x (clear cell)	1	30.6	active
PRDM14	Vehicle	OCI-C5x (clear cell)	2	41.6	active
PRDM14	Vehicle	OCI-C5x (clear cell)	3	38.2	active
PRDM14	Vehicle	OCI-P5x (serous)	1	37.8	active
PRDM14	Vehicle	OCI-P5x (serous)	2	48.6	active
PRDM14	Vehicle	OCI-P5x (serous)	3	64.2	active
MAEL	Rucaparib	OCI-C5x (clear cell)	1	47.1	active
MAEL	Rucaparib	OCI-C5x (clear cell)	2	52.4	active
MAEL	Rucaparib	OCI-C5x (clear cell)	3	58.4	active
MAEL	Rucaparib	OCI-P5x (serous)	1	70.6	active
MAEL	Rucaparib	OCI-P5x (serous)	2	63.6	active
MAEL	Rucaparib	OCI-P5x (serous)	3	81	inactive
MAEL	Vehicle	OCI-C5x (clear cell)	1	55.6	active
MAEL	Vehicle	OCI-C5x (clear cell)	2	78.5	active
MAEL	Vehicle	OCI-C5x (clear cell)	3	68.9	active
MAEL	Vehicle	OCI-P5x (serous)	1	81.8	inactive
MAEL	Vehicle	OCI-P5x (serous)	2	94.4	inactive
MAEL	Vehicle	OCI-P5x (serous)	3	79.5	active
